The results in this text go back to paper PMC4719301.

Sequences of proteins named here, by UniProt entry; tags and fusion partners are left off.
UniProt P47941: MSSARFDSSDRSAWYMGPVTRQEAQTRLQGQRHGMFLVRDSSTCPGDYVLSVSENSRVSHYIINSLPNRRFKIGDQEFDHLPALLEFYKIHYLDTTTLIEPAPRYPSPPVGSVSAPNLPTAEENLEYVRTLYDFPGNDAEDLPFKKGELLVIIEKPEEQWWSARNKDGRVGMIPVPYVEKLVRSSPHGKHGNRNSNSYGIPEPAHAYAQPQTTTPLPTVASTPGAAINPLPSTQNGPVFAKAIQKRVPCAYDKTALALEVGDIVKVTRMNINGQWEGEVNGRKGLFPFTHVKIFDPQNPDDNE
UniProt Q4JIM5: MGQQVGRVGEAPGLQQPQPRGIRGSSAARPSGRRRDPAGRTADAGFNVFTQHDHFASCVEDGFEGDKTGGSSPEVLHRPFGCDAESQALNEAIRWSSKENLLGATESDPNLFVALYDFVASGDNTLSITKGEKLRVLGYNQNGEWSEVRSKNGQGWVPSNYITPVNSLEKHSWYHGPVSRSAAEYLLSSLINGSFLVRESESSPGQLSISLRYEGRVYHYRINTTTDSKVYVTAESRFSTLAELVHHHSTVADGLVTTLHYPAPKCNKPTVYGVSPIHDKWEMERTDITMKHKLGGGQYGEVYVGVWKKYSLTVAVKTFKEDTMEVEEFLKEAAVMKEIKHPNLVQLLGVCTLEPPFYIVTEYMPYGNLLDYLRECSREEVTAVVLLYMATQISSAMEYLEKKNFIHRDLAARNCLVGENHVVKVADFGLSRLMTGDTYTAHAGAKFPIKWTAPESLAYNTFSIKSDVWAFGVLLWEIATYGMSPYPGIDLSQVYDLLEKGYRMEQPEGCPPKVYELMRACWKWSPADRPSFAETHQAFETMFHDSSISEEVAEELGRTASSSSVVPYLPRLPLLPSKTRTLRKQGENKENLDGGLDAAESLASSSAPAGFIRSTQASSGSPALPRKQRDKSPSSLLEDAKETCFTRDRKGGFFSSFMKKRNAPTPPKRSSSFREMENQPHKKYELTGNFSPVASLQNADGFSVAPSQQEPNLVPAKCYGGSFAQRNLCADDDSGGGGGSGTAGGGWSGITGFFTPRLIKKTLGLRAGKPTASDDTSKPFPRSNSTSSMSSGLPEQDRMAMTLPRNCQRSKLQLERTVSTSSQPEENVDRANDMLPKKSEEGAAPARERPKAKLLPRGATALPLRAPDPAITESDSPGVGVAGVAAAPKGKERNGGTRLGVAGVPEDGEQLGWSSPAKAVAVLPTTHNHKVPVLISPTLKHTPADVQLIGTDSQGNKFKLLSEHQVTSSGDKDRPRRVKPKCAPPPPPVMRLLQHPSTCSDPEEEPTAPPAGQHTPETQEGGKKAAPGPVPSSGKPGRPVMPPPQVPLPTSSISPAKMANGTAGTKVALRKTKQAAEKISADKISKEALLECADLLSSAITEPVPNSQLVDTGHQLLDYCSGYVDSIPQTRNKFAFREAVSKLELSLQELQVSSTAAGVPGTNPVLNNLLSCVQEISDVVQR

Read-outs that look alike come from different tables or passages of the source. Results are given in words; binding and its absence hold for the method and conditions named. In cells and extracts the contact can be indirect. Here binding means that the protein was enriched with, or labelled near, the bait; the list need not be complete.

Assay [1] deals with TAP-CrkL (mouse) (UniProt P47941). As to the kind of experiment: affinity purification with mass spectrometry; TAP-CrkL purified from lysates of transfected C2C12 myotubes; SDS-PAGE, silver stain, gel slices digested with trypsin, LC-MS/MS, iBAQ; compared with a sham control.
Assay [2] shares this target. The assay is described as above. The source holds these as a separate data set.

As for Abl2 (from UniProt Q4JIM5 1-1182), in assay [1], the binding result is listed as “binds”.

B1: Dok-7 (protein, UniProt Q18PE0 1-504)
chain: MTEAALVEGQVKLRDGKKWKSRWLVLRKPSPVADCLLMLVYKDKCERSKGLRERSSLTLEDICGLEPALPYEGLAHTLAIICLSQAVMLGFDSHEAMCAWDTRIRYALGEVHRFHVTVAPGTKLESGPATLHLCNDILVLARDIPPTVMGQWKLSDLRRYGAVPNGFIFEGGTRCGYWAGVFFLSSAEGEQMSFLFDCIVRGISPTKGPFGLRPVLPDPSSGGPSASEERVAQEALEALQLEKRLSLLSHSGRPGSGGDDRSLSSSSSEASHSDISASSRLTAWPEQSSSSAGTSQEGPGLVAAQGPGEAMLGASRPPLKPLRPRQLQEVGRQSSSDSGIATGSHSSYSGSFSSYAGSNLDVWRAGEEFGSLLSLPPGASAPEPRLCACPPGAAEYQVPTSLRHHYDTPRSLRQAPRDPSPASQGSSDHGSATDLGGQAPTGCPSSWLGARRRGQATEGPGSDAALPSPSPGESWEAGSPHAGPPPAFFLSCSICGGLKVKPPP
On to B1, for which, in assay [2], the binding entry was “binds”.

B2: LL5beta (protein, UniProt Q8K1N2 1-1249)
chain: MAEDSHMQKQLEFQNGSLEEGFVVRSLENEPQNMMESLSPRKYSSSLKFKANGDYSGSYLTLSQPVSAKRSPSPMGTSVRSSPSLAKIQGSKQFCDGIDKNISMKPPISFLSSAASLGGYPLGKADLDHYTGRDSERSTRLSEKPPYSRYSSRNKSHDSVYFLGGLEGRKTSGSLLTMWNGNSLSCTGSSPISRSGAASMPSSPKQVRKMNLQDHSTLQPRLSRHKEPASENVSVRTRKYSGSSLSNMGAYSRSLPRLYKATDNQMSPLSLPPRSSLGNSRRGQLGEKDLPHSLVDSDNYLNFSSLSSGASPYKTCLSEGNPYVSSALSVPASPRVARKMLLASTSSDDFDRASYSGTSPSHSFISGEPDRVLVARRNFSCGSMELDDSDLESLRQSSETPQPVLRERKSSISSISGRDDLMDYHRRQREERLREQEMERLERQRLETILSLCAEYTKPEGRRLSAGTTVADVQKINKELEKLQLSDEESVFEDALVCPDARYRCHRKGSLQDVDVAGFGNLGHSASFLAPRGSRSDELLGDLTRTPPSSSAAFLKATNESSYLSILPKTPEDIGEEQRTQELAAMEDARMVILNNLEELEQKIKDINDQMDESSRELDMECALLDGEQKSETAELMKEKEILDHLNRKITELEKNIVGEKTKEKVKLDAEREKLERLQELYSEQKTQLDNCPESMREQLQQQLKRDADLLDVESKHFEDLEFQQLEHESRLDEEKENLTQQLLREVAEYQRNIVARKEKISALKKQASHIVQQAQREQDHFVKEKNNLIMMLQREKENLCNLEKKYSSLTGGKGFPINPNTLKEGYISVNEINESCGNSTNLSPSTQFPADADAAVTEPALAVPVSQPQSSEHFRSLEERKKQHKEGLYLSDTLPRKKTTPSLSPHFSSATMGRSTTPKAHLPLGQSNSCGSVLPHSLATMTKDSESRRMLRGYNHQQMSEGQRQKPEFYSRTASESNVYLNSFHYPDRSYKDQAYDTLSLDSSDSMETSISACSPDNISSASTSNIARIEEMERLLKQAHAEKTRLLESREREMEAKKRALEEEKRRREILEKRLQEETSQRQKLIEKEVKIREKQRAQARPLTRYLPVRKEDFDLRSHVETAGHNIDTCFHVSITEKTCRGYLIKMGGKIKTWKKRWFVFDRNKRTFSYYADKHEAKLKGVIYFQAIEEVYYDHLKNANKSPNPLLTFSVKTHDRIYYMVAPSPEAMRIWMDVIVTGAEGYTHFLL
Take B2: in assay [2], the binding result was “binds”.

B3: Sorbs2 (protein, UniProt Q3UTJ2 1-1180)
chain: MNTDSGGCARKRAAMSVTLTSVKRVQSSPNLLAAGRESQSPDSAWRSYNDRNPETLNGDATYSSLAAKGFRSVRPNLQDKRSPTQSQITINGNSGGAVSPVSYYQRPFSPSAYSLPASLNSSIIMQHGRSLDSAETYSQHAQSLDGTMGSSIPLYRSSEEEKRVTVIKAPHYPGIGPVDESGIPTAIRTTVDRPKDWYKTMFKQIHMVHKPGLYNSPYSAQSHPAAKTQTYRPLSKSHSDNGTDAFKEVPSPVPPPHVPPRPRDQSSTLKHDWDPPDRKVDTRKFRSEPRSIFEYEPGKSSILQHERPVSIYQSSIDRSLERPSSSASMAGDFRKRRKSEPAVGPLRGLGDQSSSRTSPGRADLPGSSSTFTKSFISSSPSSPSRAQGGDDSKMCPPLCSYSGLNGTPSGELECCNAYRQHLDVPGDSQRAITFKNGWQMARQNAEIWSSTEETVSPKIKSRSCDDLLNDDCDSFPDPKTKSESMGSLLCEEDSKESCPMTWASPYIQEVCGNSRSRLKHRSAHNAPGFLKMYKKMHRINRKDLMNSEVICSVKSRILQYEKEQQHRGLLHGWSQSSTEEVPRDVVPTRISEFEKLIQKSKSMPNLGDEMLSPITLEPPQNGLCPKRRFSIESLLEEETQVRHPSQGQRSCKSNTLVPIHIEVTSDEQPRTHMEFSDSDQDGVVSDHSDYVHVEGSSFCSESDFDHFSFTSSESFYGSSHHHHHHHHHHRHLISSCKGRCPASYTRFTTMLKHERAKHENMDRPRRQEMDPGLSKLAFLVSPVPFRRKKILTPQKQTEKAKCKASVVEALDSALKDICDQIKAEKRRGSLPDNSILHRLISELLPQIPERNSSLHALKRSPMHQPFHPLPPDGASHCPLYQNDCGRMPHSASFPDVDTTSNYHAQDYGSALSLQDHESPRSYSSTLTDLGRSASRERRGTPEKEKLPAKAVYDFKAQTSKELSFKKGDTVYILRKIDQNWYEGEHHGRVGIFPISYVEKLTPPEKAQPARPPPPVQPGEIGEAIAKYNFNADTNVELSLRKGDRIILLKRVDQNWYEGKIPGTNRQGIFPVSYVEVVKRNAKGAEDYPDPPLPHSYSSDRIYTLSSNKPQRPGFSHENIQGGGEPFQALYNYTPRNEDELELRESDVVDVMEKCDDGWFVGTSRRTKFFGTFPGNYVKRL
As to B3, in assay [2], the binding entry was “binds”.

B4: Sorbs1 (protein, UniProt Q62417 1-1290)
chain: MSSECDVGSSKAVVNGLASGNHGPDKDMDPTKICTGKGTVTLRASSSYRGTPSSSPVSPQESPKHESKSGLEPEDPSADEWKLSSSADTNGNAQPSPLAAKGYRSVHPSLSADKPQGSPLLNEVSSSHIETDSQDFPPTSRPSSAYPSTTIVNPTIVLLQHNRDPASERRAGEQDPVPTPAELTSPGRASERRAKDASRRVVRSAQDLSDVSTDEVGIPLRNTERSKDWYKTMFKQIHKLNRDDDSDVHSPRYSFSDDTKSPLSVPRSKSEMNYIEGEKVVKRSATLPLPARSSSLKSSPERNDWEPLDKKVDTRKYRAEPKSIYEYQPGKSSVLTNEKMSRDISPEEIDLKNEPWYKFFSELEFGRPTNLEKDLSFCQAELEADLEKVETVNKSPSANSPQSSAVSPTPDITSEPPGYIYSSNFHAVKRESDGTPGGLASLENERQIYKSVLEGGDIPLQGLSGLKRPSSSASTKVDRKGGNAHMISSSSVHSRTFHTSNALGPGCKHKKPLSAAKACISEILPSKFKPRLSAPSALLQEQKSVLLPSEKAQSCENLCVSLNDSKRGLPLRVGGSIENLLMRSRRDYDSKSSSTMSLQEYGTSSRRPCPLSRKAGLHFSMFYRDMHQINRAGLSLGSISSSSVRDLASHFERSSLTLARGELGASQEGSEHIPKHTVSSRITAFEQLIQRSRSMPSLDFSGRLSKSPTPVLSRSGLTSARSAESLLESTKLRPREMDGMDSGGVYASPTCSNMADHALSFRSLVPSEPLSICSDELDHCSNVSNDSREGSGGSVHGDFPKHRLNKCKGTCPASYTRFTTIRKHEQQSSRQSDWRSDSRGDKNSLLRNIHLMSPLPFRLKKPLQQHPRQPPPSDSSESPAGQKADLPCHDPQDQPHSAGKPQVPTRLSSRHTMARLSHNSEPPLDRPAGLEDCTRAINNGNPVPYSDHGLDRNNNPQSELAAAHGDSESPRHFIPADYLESTEEFIRRRHDDKEKLLADQRRLKREQEEADIAARRHTGVIPTHHQFITNERFGDLLNIDDTAKRKSGLEMRPARAKFDFKAQTLKELPLQKGDVVYIYRQIDQNWYEGEHHGRVGIFPRTYIELLPPAEKAQPRKLAPVQVLEYGEAIAKFNFNGDTQVEMSFRKGERITLLRQVDENWYEGRIPGTSRQGIFPITYVDVLKRPLVKTPVDYIDLPYSSSPSRSATVSPQQPQAQQRRVTPDRSQPSLDLCSYQALYSYVPQNDDELELRDGDIVDVMEKCDDGWFVGTSRRTRQFGTFPGNYVKPLYL
For B4, in assay [2], the binding result is given as “binds”.

B5: Tks5 (protein, UniProt O89032 1-1124)
chain: MLAYCVQDATVVDVEKRRSPSKHYVYIINVTWSDSTSQTIYRRYSKFFDLQMQLLDKFPIEGGQKDPKQRIIPFLPGKILFRRSHIRDVAVKRLKPIDEYCRALVRLPPHISQCDEVFRFFEARPEDVNPPKEDYGSSKRKSVWLSSWAESPKKDVTGADTNAEPMILEQYVVVSNYKKQENSELSLQAGEVVDVIEKNESGWWFVSTSEEQGWVPATYLEAQNGTRDDSDINTSKTGEVSKRRKAHLRRLDRRWTLGGMVNRQHSREEKYVTVQPYTSQSKDEIGFEKGVTVEVIRKNLEGWWYIRYLGKEGWAPASYLKKAKDDLPTRKKNLAGPVEIIGNIMEISNLLNKKASGDKEAPAEGEGSEAPITKKEISLPILCNASNGSALAIPERTTSKLAQGSPAVARIAPQRAQISSPNLRTRPPPRRESSLGFQLPKPPEPPSVEVEYYTIAEFQSCISDGISFRGGQKAEVIDKNSGGWWYVQIGEKEGWAPASYIDKRKKPNLSRRTSTLTRPKVPPPAPPSKPKEAEENPVGACESQGSPLKVKYEEPEYDVPAFGFDSEPEMNEEPSGDRGSGDKHPAQPRRISPASSLQRAHFKVGESSEDVALEEETIYENEGFRPYTEDTLSARGSSGDSDSPGSSSLSLAVKNSPKSDSPKSSSLLKLKAEKNAQAELGKNQSNISFSSSVTISTTCSSSSSSSSLSKNNGDLKPRSASDAGIRDTPKVGTKKDPDVKAGLASCARAKPSVRPKPVLNRAESQSQEKMDISSLRRQLRPTGQLRGGLKGSRSEDSELPPQMASEGSRRGSADIIPLTATTPPCVPKKEWEGQGATYVTCSAYQKVQDSEISFPEGAEVHVLEKAESGWWYVRFGELEGWAPSHYLVAEENQQPDTASKEGDTGKSSQNEGKSDSLEKIEKRVQALNTVNQSKRATPPIPSKPPGGFGKTSGTVAVKMRNGVRQVAVRPQSVFVSPPPKDNNLSCALRRNESLTATDSLRGVRRNSSFSTARSAAAEAKGRLAERAASQGSESPLLPTQRKGIPVSPVRPKPIEKSQFIHNNLKDVYISIADYEGDEETAGFQEGVSMEVLEKNPNGWWYCQILDEVKPFKGWVPSNYLEKKN
B5: the binding result in assay [2] is on record as “binds”.

B6: Elmo2 (protein, UniProt Q8BHL5 1-732)
chain: MPPPSDIVKVAIEWPGANAQLLEIDQKRPLASIIKEVCDGWSLPNPEYYTLRYADGPQLYVTEQTRNDIKNGTILQLAVSPSRAARQLMERTQSSSMETRLDAMKELAKLSADVTFATEFINMDGIIVLTRLVESGTKLLSHYSEMLAFTLTAFLELMDHGIVSWDMVSVTFIKQIAGYVSQPMVDVSILQRSLAILESMVLNSQSLYQKIAEEITVGQLISHLQVSNQEIQTYAIALINALFLKAPEDKRQDKHLNPLDLPVTDMANAFAQKHLRSIILNHVIRGNRPIKTEMAHQLYVLQVLTFNLLEERMMTKMDPNDQAQRDIIFELRRIAFDAESDPSNVPGSGTEKRKAMYTKDYKMLGFTNHINPALDFTQTPPGMLALDNMLYLAKVHQDTYIRIVLENSSREDKHECPFGRSAIELTKMLCEILQVGELPNEGRNDYHPMFFTHDRAFEELFGICIQLLNKTWKEMRATAEDFNKVMQVVREQITRALPSKPNSLDQFKSKLRSLSYSEILRLRQSERMSQDDFQSPPIVELREKIQPEILELIKQQRLNRLCEGSSFRKIGNRRRQERFWHCRLALNHKVLHYGDLDDNPQGEVTFESLQEKIPVADIKAIVTGKDCPHMKEKSALKQNKEVLELAFSILYDPDETLNFIAPNKYEYCIWIDGLSALLGKDMSSELTKSDLDTLLSMEMKLRLLDLENIQIPEAPPPVPKEPSSYDFVYHYG
On to B6, for which, in assay [2], the binding entry was “binds”.
